Taken from: PubChem BioAssay AID504764 (Drosophila RNAi Screening Center, 2011)

Test: 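Genes whose knock-down alters Notch-dependent transcription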 (primary screen)
Cell system: Drosophila Kc167 cells
Reagent: long dsRNA against Drosophila genes
Duration: about 5 days (4 days dsRNA, then 24 h after transfection)
Treatment: transfection of constitutively active membrane-tethered Notch lacking the extracellular domain, read 24 h later
Measurement: 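Firefly luciferase from an E(spl)m3 reporter with active Notch, plus control-promoter and uninduced reporter wells for normalisation; unnormalised counts, duplicate wells a and b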
Direction: induced reporter light, run 1, well a and induced reporter light, run 1, well b: higher = more light from the Notch target reporter with active Notch; control promoter light, run 1, well a and control promoter light, run 1, well b: higher = more light from the viral control promoter (cell number, transfection, viability); uninduced reporter light, run 1, well a: higher = more light from the Notch target reporter without active Notch
Active means: 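Wells with low control signal or poorly matching duplicates excluded; duplicates averaged; per source plate, z beyond ±2 for induced/control log2 ratio or beyond ±1.8 for induced/uninduced marks a hit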
Meaning of the calls: active = modifier hit (raised or lowered Notch signal); inactive = not a hit
The deposit covers about 22,000 reagents; below is a random part of those with a known target gene and a result. In the full data, 403 (1.9%) were called active. 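Unnormalised raw counts per well; ratio z-scores behind the hit calls and whether each hit raises or lowers signal are not deposited.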 A number with no mark means an inactive call. Not given: the amount of reagent.

Brd8 (Bromodomain containing 8) [DRSC14866] — induced reporter light, run 1, well a: 1.70e5; induced reporter light, run 1, well b: 1.95e5; control promoter light, run 1, well a: 2.17e5; control promoter light, run 1, well b: 2.23e5; uninduced reporter light, run 1, well a: 11540
Sil1 (Sil1 nucleotide exchange factor) [DRSC14242] — induced reporter light, run 1, well a: 1170; induced reporter light, run 1, well b: 2610; control promoter light, run 1, well a: 3090; control promoter light, run 1, well b: 3680; uninduced reporter light, run 1, well a: 238
Tab2 (TAK1-associated binding protein 2) [DRSC07481] — induced reporter light, run 1, well a: 1.06e5; induced reporter light, run 1, well b: 87225; control promoter light, run 1, well a: 1.13e5; control promoter light, run 1, well b: 1.22e5; uninduced reporter light, run 1, well a: 8780
Taf11 (TBP-associated factor 11) [DRSC03448] — induced reporter light, run 1, well a: 1.24e5; induced reporter light, run 1, well b: 1.23e5; control promoter light, run 1, well a: 52340; control promoter light, run 1, well b: 62640; uninduced reporter light, run 1, well a: 16740
KCNQ (KCNQ potassium channel) [DRSC06121] — induced reporter light, run 1, well a: 1.31e5; induced reporter light, run 1, well b: 1.20e5; control promoter light, run 1, well a: 1.21e5; control promoter light, run 1, well b: 1.25e5; uninduced reporter light, run 1, well a: 15350
KCNQ (KCNQ potassium channel) [DRSC06230] — induced reporter light, run 1, well a: 1.51e5; induced reporter light, run 1, well b: 1.26e5; control promoter light, run 1, well a: 1.99e5; control promoter light, run 1, well b: 1.63e5; uninduced reporter light, run 1, well a: 13960
CG42335 [DRSC14597] — induced reporter light, run 1, well a: 1.94e5; induced reporter light, run 1, well b: 1.40e5; control promoter light, run 1, well a: 1.73e5; control promoter light, run 1, well b: 1.50e5; uninduced reporter light, run 1, well a: 12085
CG42335 [DRSC15892] — induced reporter light, run 1, well a: 1.87e5; induced reporter light, run 1, well b: 1.74e5; control promoter light, run 1, well a: 2.39e5; control promoter light, run 1, well b: 2.33e5; uninduced reporter light, run 1, well a: 14640
CG10877 [DRSC14274] — induced reporter light, run 1, well a: 1.62e5; induced reporter light, run 1, well b: 1.68e5; control promoter light, run 1, well a: 1.82e5; control promoter light, run 1, well b: 1.72e5; uninduced reporter light, run 1, well a: 11155
Mapmodulin [DRSC06956] — induced reporter light, run 1, well a: 67175; induced reporter light, run 1, well b: 73630; control promoter light, run 1, well a: 1.03e5; control promoter light, run 1, well b: 1.21e5; uninduced reporter light, run 1, well a: 6955
Gs1l (GS1-like) [DRSC00754] — induced reporter light, run 1, well a: 1.89e5; induced reporter light, run 1, well b: 2.11e5; control promoter light, run 1, well a: 1.94e5; control promoter light, run 1, well b: 1.79e5; uninduced reporter light, run 1, well a: 11500
CG32202 [DRSC09989] — induced reporter light, run 1, well a: 2.07e5; induced reporter light, run 1, well b: 1.96e5; control promoter light, run 1, well a: 2.23e5; control promoter light, run 1, well b: 1.75e5; uninduced reporter light, run 1, well a: 10715
